This passage reports binding results from paper PMC6814714.

The chains behind the UniProt entries cited, without tags or fusion partners. Where a name states a change or a piece, a line headed by the entry shows the natural chain unless it says otherwise. Residues count along the entry.
UniProt P26231: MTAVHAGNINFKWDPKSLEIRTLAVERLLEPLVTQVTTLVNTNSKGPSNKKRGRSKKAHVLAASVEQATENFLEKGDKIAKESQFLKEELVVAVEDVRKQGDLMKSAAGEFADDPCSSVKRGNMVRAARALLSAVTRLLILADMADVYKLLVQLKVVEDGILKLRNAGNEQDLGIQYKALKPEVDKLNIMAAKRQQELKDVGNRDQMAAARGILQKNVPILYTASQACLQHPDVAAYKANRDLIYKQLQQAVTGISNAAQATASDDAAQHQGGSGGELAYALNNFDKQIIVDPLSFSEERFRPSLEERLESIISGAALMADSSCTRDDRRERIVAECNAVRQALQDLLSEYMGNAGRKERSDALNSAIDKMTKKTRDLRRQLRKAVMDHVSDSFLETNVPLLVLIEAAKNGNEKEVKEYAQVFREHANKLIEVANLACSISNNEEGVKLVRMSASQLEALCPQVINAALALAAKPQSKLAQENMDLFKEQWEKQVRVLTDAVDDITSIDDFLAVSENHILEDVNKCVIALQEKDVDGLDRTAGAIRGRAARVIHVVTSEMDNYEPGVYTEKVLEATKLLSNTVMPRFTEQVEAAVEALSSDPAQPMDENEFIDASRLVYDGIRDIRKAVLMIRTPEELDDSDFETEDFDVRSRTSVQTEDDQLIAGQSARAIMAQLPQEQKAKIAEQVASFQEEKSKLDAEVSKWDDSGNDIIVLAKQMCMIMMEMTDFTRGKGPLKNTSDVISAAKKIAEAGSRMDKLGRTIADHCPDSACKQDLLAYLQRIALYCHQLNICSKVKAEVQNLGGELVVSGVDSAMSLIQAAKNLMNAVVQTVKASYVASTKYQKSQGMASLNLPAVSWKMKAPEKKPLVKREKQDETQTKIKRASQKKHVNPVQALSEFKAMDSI
UniProt Q02248: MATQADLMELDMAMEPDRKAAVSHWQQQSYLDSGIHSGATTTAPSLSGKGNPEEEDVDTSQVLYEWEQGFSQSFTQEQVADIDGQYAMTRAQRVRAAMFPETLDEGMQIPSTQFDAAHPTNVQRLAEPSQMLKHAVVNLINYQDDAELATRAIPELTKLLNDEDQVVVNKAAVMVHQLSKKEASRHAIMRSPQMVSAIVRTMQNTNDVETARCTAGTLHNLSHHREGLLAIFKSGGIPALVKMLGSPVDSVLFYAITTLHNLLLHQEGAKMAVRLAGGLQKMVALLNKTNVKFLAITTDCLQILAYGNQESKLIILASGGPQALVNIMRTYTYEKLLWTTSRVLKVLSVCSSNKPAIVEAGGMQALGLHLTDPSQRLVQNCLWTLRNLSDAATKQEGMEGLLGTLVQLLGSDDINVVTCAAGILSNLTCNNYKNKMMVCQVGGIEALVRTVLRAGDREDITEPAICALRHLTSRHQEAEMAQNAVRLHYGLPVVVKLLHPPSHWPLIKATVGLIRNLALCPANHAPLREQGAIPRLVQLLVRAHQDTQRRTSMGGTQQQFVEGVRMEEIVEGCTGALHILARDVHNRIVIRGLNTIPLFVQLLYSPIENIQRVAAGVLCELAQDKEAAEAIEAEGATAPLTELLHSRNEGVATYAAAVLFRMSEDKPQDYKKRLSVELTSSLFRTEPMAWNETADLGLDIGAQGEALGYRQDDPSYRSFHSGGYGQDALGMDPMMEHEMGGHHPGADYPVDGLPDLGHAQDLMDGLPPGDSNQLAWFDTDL
UniProt P09803, residues 734-884: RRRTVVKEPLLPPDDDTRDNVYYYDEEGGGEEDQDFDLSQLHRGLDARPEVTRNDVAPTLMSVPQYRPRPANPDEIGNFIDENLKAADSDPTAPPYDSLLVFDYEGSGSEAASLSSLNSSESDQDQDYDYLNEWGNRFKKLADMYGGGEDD

These are yes or no findings as the source states them, for the method shown. Some results given as binding are weak or reduced against the parent protein; the word gives no strength.

What all share (experiment): SEC; complexes formed by mixing the purified components and purified on S200 before cysteine labelling; both purified
Assay [1] addresses His8-tagged αE-catenin R551A (full-length) (murine) (UniProt P26231).
In assay [2] the target is His8-tagged αE-catenin wild type (full-length) (murine) (UniProt P26231).
The target of the next assay is β-catenin (murine) (UniProt Q02248).

β-catenin (from UniProt Q02248 1-781): the binding result in assay [1] and in assay [2] was “binds” throughout. As for “cytoplasmic domain of E-cadherin (from UniProt P09803 734-884) (domain or fragment)”, the binding entry with β-catenin (murine) is “binds”.
